Source: PubChem BioAssay AID652272 (Drosophila RNAi Screening Center, 2013)
The screen tested about 21,000 reagents; shown is an unselected part of those that have a named target and a result. Over the whole deposit, 503 (2.4%) got an active call. 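Raw plate light values, not normalised; calls rest on replicate z-scores that were not deposited; hits include reporter decreases as well as increases.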 A number with no mark means an inactive call. Reagents against one gene are numbered here. A plus sign joins genes that one reagent is predicted to hit. Not stated in the record: the amount of reagent, the time to read-out.

Purpose: 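Genome-wide knock-down search for components of Hedgehog signalling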 (primary screen)
System: Drosophila clone 8 (Cl8) cells
Reagents: long dsRNA against Drosophila genes
Detection: 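Firefly light from a Hedgehog-responsive ptc promoter reporter and Renilla reference light, both read on a plate reader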
Reading the numbers: firefly Hh reporter signal: higher = more ptc reporter light; Renilla reference signal: higher = more Renilla control light
Call rule: 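Hit when the z-score averaged over two replicates is under -2 or over +3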
Calls: active = hit: reporter lowered or raised; inactive = not a hit

| firefly Hh reporter signal, replicate 1 | firefly Hh reporter signal, replicate 2 | firefly Hh reporter signal, replicate 3 | Renilla reference signal, replicate 1 | Renilla reference signal, replicate 2 | predicted target | reagent |
| --- | --- | --- | --- | --- | --- | --- |
| 1.12e5 | 3.55e5 | – | 3132 | 16180 | CG34169 | 1 |
| 1.56e5 | 8.95e5 | 1.64e5 | 5939 | 50177 | CG12213 | 1 |
| 97601 | 4.56e5 | 34285 | 2786 | 29888 | CG6770 | 1 |
| 67712 | 84628 | – | 2313 | 1748 | CG17715 | 1 |
| 1.11e5 | 1.21e5 | – | 4576 | 4327 | Septin2 | 1 |
| 49523 | 30216 | – | 2571 | 1478 | Mob4 | 1 |
| 66249 | 46997 | – | 2704 | 1913 | CG13380 + CG4174 | 1 |
| 88282 | – | – | 1991 | 2816 | CG13380 + CG4174 | 2 |
| 1.54e5 | 77074 | – | 5514 | 3098 | Npc2f | 1 |
| 81626 | 59813 | – | 1953 | 5552 | CG17344 | 1 |
| 66352 | 39079 | – | 1619 | 2701 | mute | 1 |
| 88872 | 38987 | – | 4695 | 2368 | Polr1C | 1 |
| 1.62e5 | 1.18e5 | – | 5932 | 4259 | PGRP-LB | 1 |
| 92829 | 2.20e5 | – | 2634 | 7651 | CG13375 | 1 |
| 1.58e5 | 76453 | – | 6379 | 2822 | CG17027 | 1 |
| 55313 | 1.62e5 | – | 1443 | 7268 | CG3309 | 1 |
| 82164 | 47635 | – | 2229 | 3306 | CG3687 | 1 |
| 54010 | 2.34e5 | – | 11403 | 5765 | Ir94c | 1 |
| 76797 | 73425 | – | 1993 | 5497 | dpr13 | 1 |
| 80944 | 82331 | – | 2154 | 5804 | dpr13 | 2 |
| 1.15e5 | 1.00e5 | – | 2803 | 2549 | wap | 1 |
| 95080 | – | – | 2891 | 3045 | shd | 1 |
| 74202 | 68109 | – | 3787 | 3056 | Hem | 1 |
| 1.28e5 | 43629 | – | 3013 | 2519 | Oatp58Db | 1 |
| 80812 | 2.14e5 | – | 3101 | 9200 | CG14194 | 1 |
| 84341 | 2.56e5 | – | 1985 | 10955 | CG34325 | 1 |
| 91010 | 2.23e5 | – | 2402 | 9648 | CG34325 | 2 |
| 41101 | 47204 | 42803 | 4843 | 2940 | CG34429 | 1 |
| 99383 | 95714 | – | 3520 | 5850 | Sb | 1 |
| 1.36e5 | 4.99e5 | 1.13e5 | 5739 | 31466 | CG11247 | 1 |

Limited to “Renilla reference signal, replicate 2”, for 7 of the entries above:
shd	3045
Hem	3056
Oatp58Db	2519
CG14194	9200
CG34325 #1	10955
CG34325 #2	9648
CG34429	2940

Continued.
| firefly Hh reporter signal, replicate 1 | firefly Hh reporter signal, replicate 2 | firefly Hh reporter signal, replicate 3 | Renilla reference signal, replicate 1 | Renilla reference signal, replicate 2 | predicted target | reagent |
| --- | --- | --- | --- | --- | --- | --- |
| 1.13e5 | 1.91e5 | – | 3622 | 8072 | CG9114 | 1 |
| 53560 | 2.98e5 | – | 1635 | 11737 | wuho | 1 |
| 88689 | 95446 | – | 1943 | 7211 | CG13587 | 1 |
| 1.91e5 | 3.34e5 | – | 5117 | 16241 | nAChRalpha5 | 1 |
| 1.37e5 | 64722 | – | 3570 | 5648 | nAChRalpha5 | 2 |
| 1.54e5 | 62664 | – | 3959 | 6114 | nAChRalpha5 | 3 |
| 1.28e5 | 71020 | – | 2877 | 5578 | Cyp49a1 | 1 |
| 1.50e5 | 44352 | – | 3752 | 4178 | Cyp49a1 | 2 |
| 88834 | 41604 | – | 2999 | 3208 | CG9004 | 1 |
| 3.84e5 | 1.28e5 | – | 23010 | 2739 | CG34323 | 1 |
| 81392 | 1.18e5 | – | 3036 | 3236 | CG11600 | 1 |
| 49531 | 2.50e5 | – | 10962 | 5963 | Octalpha2R | 1 |
| 4.62e5 | 1.28e5 | – | 20421 | 3560 | Octalpha2R | 2 |
| 1.02e5 | 64105 | – | 2882 | 4949 | CG7631 | 1 |
| 50219 | 65755 | – | 2390 | 2752 | Spp | 1 |
| 76359 | 43888 | – | 4708 | 2656 | CG42306 + Gint3 | 1 |
| 1.10e5 | 64548 | – | 3081 | 6789 | CG3277 | 1 |
| 60274 | 48337 | – | 2417 | 2055 | CG10600 | 1 |
| 85242 | 43031 | – | 4208 | 1984 | CG7492 | 1 |
| 1.04e5 | 1.70e5 | – | 4247 | 6583 | CG3592 | 1 |
| 1.04e5 | 56480 | – | 2963 | 5657 | CG2852 | 1 |
| 55093 | 93787 | – | 1824 | 3155 | CG18745 | 1 |
| 68530 | 96208 | – | 2800 | 2748 | CG10055 | 1 |
| 96192 | 2.65e5 | – | 3852 | 8944 | CG17959 | 1 |
| 95140 | 72872 | – | 2224 | 1986 | CG3597 | 1 |
| 60480 | 67360 | – | 5714 | 4955 | Cp18 | 1 |
| 98423 | 87680 | – | 4717 | 3686 | eIF2Bgamma | 1 |
